The other results are listed elsewhere or left out. These are further read-outs of the screen, such as a control signal, another cell line or another target. No call is given for them. Most of these compounds were active or inconclusive in the main read-out, so they are no random draw. Words in brackets tell the shape of the fitted curve; partial curves, single points and poor fits give uncertain potencies.
Test: qHTS Assay for Lipid Storage Modulators in Drosophila S3 Cells;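 as to cell number change: cells counted by Cell Tracker Red CMTPX staining in the red channel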
Conditions: BODIPY lipid droplet fluorescence, 18-24 h; for cell number change: measured here: cell count max response, cells fed with added oleic acid
Summary of the method: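 Laser-scanning cytometry quantifies lipid droplet accumulation (500–530 nm total intensity; droplet/cell object ratio) in oleic acid-fed (400 uM added) Drosophila S3 cells treated with a concentration series. 20 uM Triacsin C defined 100% inhibition.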

[1] = measured here: cell number channel AC50, cells fed with added oleic acid
[2] = measured here: lipid fluorescence (Fed channel) AC50, cells fed with added oleic acid

| SMILES | cell number change | AC50 [1] | AC50 [2] |
| --- | --- | --- | --- |
| COc1ccc(-c2nc(NC(=O)c3ccc(OCC(=O)Nc4ccc(F)cc4)c(OC)c3)sc2C)cc1 | -47.5% | 29.1 µM [falling, single point] | 29.1 µM [falling, single point] |
| COc1ccccc1NC(=O)N1CCC(C(=O)c2ccc(F)cc2)CC1 | 13.8% |  | 0.291 µM [rising, partial curve, poor fit] |
| CCN(CC)c1ccc(C(=O)OCC(=O)Nc2cccc(S(=O)(=O)NC3=NCCCCC3)c2)cc1 | 36.3% | 4.11 µM [rising, full curve] |  |
| CN(c1ccccc1)c1ccc(/C=c2\s/c(=C(/C#N)C(=O)C(C)(C)C)n(Cc3ccco3)c2=O)cc1 | -99.4% | 29.1 µM [falling, partial curve, poor fit] |  |
| O=Cc1c(N2CCN(CCO)CC2)nc2ccccn2c1=O | 36.5% |  |  |
| Nc1nnc(SCC(=O)NC2CCCCCCC2)s1 | 8.7% |  | 14.6 µM [falling, partial curve, poor fit] |
| Cc1cccc(N2CC(=O)N(c3cccc(C)c3)CC2=O)c1 | 6.92% |  |  |
| COc1cccc(NS(=O)(=O)c2ccc3c(c2)n(C)c(=O)c(=O)n3C)c1 |  | 1.3 µM [rising, full curve] | 1.3 µM [rising, full curve] |
| O=S(=O)(Nc1ccc(-n2cnnn2)cc1)c1ccc(F)c(F)c1F | -21.2% | 2.06 µM [rising, partial curve] | 3.66 µM [rising, partial curve] |
| O=[N+]([O-])c1ccc(/C=N/Nc2nc3ccccc3o2)cc1 | -16.9% | 0.731 µM [rising, single point] | 29.1 µM [falling, single point] |
| CCOc1ccc(NC(=O)C(C)Oc2ccc(C#N)cc2)cc1S(=O)(=O)N1CCCC1 (centres undefined) | -22.2% |  | 29.1 µM [falling, single point] |
| COc1cccc(NC(=S)N(CCc2c(C)[nH]c3ccc(C)cc23)Cc2cccs2)c1 | -24.3% | 0.0206 µM [falling, full curve, poor fit] | 0.00461 µM [falling, full curve, poor fit] |
| C/C(=N/NC(=O)c1ccoc1C)c1cccc(NC(=O)C(F)(F)F)c1 | 0.326% |  |  |
| Cn1c(N2CCN(C(c3ccccc3)c3ccccc3)CC2)nc2ccccc21 | 27.8% |  | 9.2 µM [rising, partial curve] |
| N#C/C(=C1/CCCCCN1)c1nc2ccccc2s1 | -12.2% |  | 6.51 µM [falling, single point] |
| COc1ccc(N2CCN(CC(=O)Nc3cccc(S(=O)(=O)N4CCOCC4)c3)CC2)cc1 |  |  | 18.4 µM [falling, partial curve] |
| Cc1ccc(OCC(=O)NC(=S)Nc2cccc(C)n2)cc1 | -3.4% |  |  |
| CCOC(=O)C1CCN(C(=O)c2ccc(OC3CCN(C(=O)COC)CC3)cc2)CC1 | 4.42% |  | 29.1 µM [rising, single point] |
| Cc1cccc(C)c1NC(=O)CN(C)CC(=O)N(C)CC(=O)Nc1ccccc1Br | 4.37% | 0.0058 µM [falling, full curve, poor fit] |  |

| SMILES | cell number change | AC50 [1] | AC50 [2] |
| --- | --- | --- | --- |
| Cc1ccc(OCCN(C)C(=O)C2CCC(=O)N(Cc3ccccc3F)C2)cc1 (centres undefined) | 14.1% | 7.31 µM [rising, single point] |  |
| CSCCC(NC(=O)c1ccccc1)C(=O)N1CCCCCCC1 (centres undefined) | 9.91% |  | 4.11 µM [rising, single point] |
| COCCNc1ccc(-c2nn(C)c(=O)c3ccccc23)cc1[N+](=O)[O-] | 22.4% |  | 3.26 µM [rising, partial curve, poor fit] |
| O=C1C=C(Nc2ccccc2)C(=O)c2ccccc21 | -49.9% | 32.6 µM [falling, partial curve, poor fit] | 25.9 µM [falling, partial curve, poor fit] |
| CS(=O)(=O)N(CC(=O)N1CCCCCC1)Cc1ccc(Cl)cc1 | 34.9% | 29.1 µM [rising, single point] |  |
| CCn1c(Cc2ccccc2)nnc1SCC(=O)Nc1ccccc1 | 11.6% | 6.51 µM [rising, single point] |  |
| CN(C)C(CNc1ccc(C(F)(F)F)cn1)c1ccccc1 (centres undefined) | -7.56% |  |  |
| CSc1cccc(NC(=O)c2ccc(NC3=NC4CS(=O)(=O)CC4S3)cc2)c1 (centres undefined) | 13.8% |  |  |
| Cc1cccc(N2CCCn3c2nc2c3c(=O)n(CCN3CCOCC3)c(=O)n2C)c1 | 6.45% |  |  |
| COc1ccc(C2CC(=O)C3=C(C2)Nc2ccccc2N(C(=O)CCC(=O)O)C3c2ccc(F)cc2)cc1 (centres undefined) | -22.4% |  | 1.3 µM [falling, full curve] |
| Cc1cc(O)c(C(C)C)cc1C1(c2cc(C(C)C)c(O)cc2C)OC(=O)c2ccccc21 | -36% | 5.17 µM [falling, partial curve, poor fit] |  |
| Cn1cc(-c2cccc(Cl)c2)cc(C#N)c1=O | -68.8% |  | 0.00517 µM [falling, full curve, poor fit] |
| Cn1c(CCNC(=O)c2ccccc2F)nnc1SCc1nc2ccccc2c(=O)[nH]1 | 7.89% |  | 9.2 µM [rising, partial curve] |
| CC(C)CN1C(=O)N(c2ccc(Cl)cc2)C(C)(O)CC1(C)C (centres undefined) | -34.5% | 20.6 µM [falling, single point] | 25.9 µM [falling, single point] |
| Cc1ccccc1-c1n[nH]c(=S)n1C | 8.02% |  | 29.1 µM [rising, single point] |
| C=CCNC(=O)c1ccc(-c2nc(-c3ccccc3)cs2)cc1 | -57% | 20.6 µM [falling, single point] | 29.1 µM [falling, single point] |
| COc1cccc(-c2coc3c(C)c4oc(=O)c(CCC(=O)O)c(C)c4cc23)c1 | -10.7% |  | 29.1 µM [falling, single point] |
| O=C(Nc1ccccc1Br)C1CC(=O)N(c2ccc3c4c(cccc24)CC3)C1 (centres undefined) | 6.77% | 4.11 µM [falling, single point] | 6.51 µM [falling, single point] |

An excerpt of these results, tab-delimited:
SMILES	cell number change	AC50 [1]	AC50 [2]
Cn1cc(-c2cccc(Cl)c2)cc(C#N)c1=O	-68.8%		0.00517 µM [falling, full curve, poor fit]
Cn1c(CCNC(=O)c2ccccc2F)nnc1SCc1nc2ccccc2c(=O)[nH]1	7.89%		9.2 µM [rising, partial curve]
CC(C)CN1C(=O)N(c2ccc(Cl)cc2)C(C)(O)CC1(C)C (centres undefined)	-34.5%	20.6 µM [falling, single point]	25.9 µM [falling, single point]

Source: PubChem BioAssay AID2685 (National Center for Advancing Translational Sciences (NCATS), 2010)
